We go through 59 compounds from PubChem BioAssay AID2685 (National Center for Advancing Translational Sciences (NCATS), 2010).

In general, AC50 refers to the midpoint of the concentration-response curve, whichever way the signal moves.

The experiment can be described thus: qHTS Assay for Lipid Storage Modulators in Drosophila S3 Cells.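 On cell number change: cells counted by Cell Tracker Red CMTPX staining in the red channel.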 The note with it: BODIPY lipid droplet fluorescence, 18-24 h; for cell number change: measured here: cell count max response, cells fed with added oleic acid. A digest of the protocol:
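Laser-scanning cytometry quantifies lipid droplet accumulation (500–530 nm total intensity; droplet/cell object ratio) in oleic acid-fed (400 uM added) Drosophila S3 cells treated with a concentration series. 20 uM Triacsin C defined 100% inhibition.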
For orientation: In qHTS, concentration-response curves come from the screen itself.

Setting [1] is: measured here: lipid fluorescence (Fed channel) AC50, cells fed with added oleic acid.
The mark [2] stands for this setting: measured here: cell number channel AC50, cells fed with added oleic acid.

The list shows a part of the results. Shown are side measurements of this screen, not its main read-out; they come without a call. The list favours compounds with an active or inconclusive main result. The note in brackets gives the kind of curve behind each potency; many fits are weak.

As for `COc1ccccc1NS(=O)(=O)c1cc(NC(=O)c2[nH]c(C)c(C(C)=O)c2C)ccc1N1CCOCC1`, the AC50 under setting [1] is 0.411 µM [falling, partial curve, poor fit].
Regarding `COc1ccc(Nc2nc(NN)nc(Nc3ccc(OC)cc3)n2)cc1`, the cell number change was -26.1%. Under setting [1], the half-maximal activity concentration (AC50) was 0.13 µM [falling, full curve, poor fit].
With `Cc1ccc(NS(=O)(=O)c2cc(C(=O)O)ccc2Cl)cc1`, the AC50 under setting [1] was 0.13 µM [falling, partial curve, poor fit].
For `CCCCNC(=O)O[C@@H]1C[C@@H]2CCN3C(=O)CCC[C@H]([C@H]1CC)[C@H]23`, the cell number change was found to be 23.9%. In addition, under setting [2], the concentration at half-maximal activity (AC50) was 3.66 µM [rising, partial curve, poor fit].
As to `CC1CCCC(C)N1CCCNC(=O)C1CCCN(c2ncnc3c2nc2n3CCCCC2)C1` (stereo unspecified), the cell number change came to 45.8%. The AC50 under setting [1] is 29.1 µM [falling, single point].
On to `O=C(CCSc1nc(-c2ccc3c(c2)OCO3)cc(C(F)(F)F)n1)NCc1ccco1`, for which the cell number change is -0.184%. Also, under setting [1], the AC50 is 2.59 µM [rising, full curve].
Take `CC(=O)c1cccc(OCc2cc(C(=O)N(C)CCc3ccccn3)no2)c1`: the cell number change is -6.9%.
Turning to `COc1ccc(C(=O)Nc2nnc(Cc3ccc(OC)c(OC)c3)s2)c(OC)c1`, the cell number change was -19.9%.
With `COCCOCCn1cnc2ccccc21`, the cell number change is -133%. Moreover, under setting [2], the concentration at half-maximal activity (AC50) was 25.9 µM [falling, partial curve]. Under setting [1], the AC50 is 0.116 µM [falling, full curve, poor fit].
For `Cc1ccc(Nc2ncnc3c2cnn3C)cc1`, the cell number change is -15.4%. The AC50 under setting [1] is 0.92 µM [falling, full curve].
With `COc1ccc(OCC(=O)Nc2ccc3oc(=O)ccc3c2)cc1`, the cell number change was determined as 5.41%. The concentration at half-maximal activity (AC50) under setting [1] is 6.51 µM [falling, single point].
For the compound `CC(=O)c1cc2c(cc1NC(=O)CCNC(=O)c1ccccc1Cl)OCO2`, the cell number change is 22.9%. In addition, under setting [1], the AC50 is 0.82 µM [rising, single point].
`CCCCC(=O)Nc1ccccc1N1CCOCC1`: the cell number change is -6.78%.
Turning to `O=C(Nc1ccc(S(=O)(=O)N2CCOCC2)cc1)c1cccnc1`, the cell number change was -35.1%. In addition, the AC50 under setting [2] was 29.1 µM [falling, single point]. Further, the AC50 under setting [1] is 29.1 µM [falling, single point].
As for `CCC1=NN(S(=O)(=O)c2ccc(C)cc2)C(O)(C(F)(F)F)C1` (stereo unspecified), the cell number change was found to be 35.1%. The AC50 under setting [1] is 20.6 µM [rising, single point].
As for `COc1ccc(C(CNC(=O)c2ccc(-c3ccccc3Cl)o2)N2CCOCC2)cc1` (stereo unspecified), the cell number change is -23.9%.
As for `CCCC1(CCC)NC(=O)N(CC(=O)N2CCN(C(=O)c3ccco3)CC2)C1=O`, the cell number change was -51.6%. Besides, the AC50 under setting [2] is 2.06 µM [falling, full curve]. For the same compound, under setting [1], the concentration at half-maximal activity (AC50) was 0.731 µM [falling, full curve].
On to `O=C(CNS(=O)(=O)c1ccccc1)N/N=C/c1ccc(O)cc1`, for which the AC50 under setting [1] was 6.51 µM [rising, partial curve, poor fit].
For the compound `Cc1nn(Cc2ccc(Cl)c(Cl)c2)c(C)c1NC(=O)c1cn(-c2ccccc2)nc1-c1ccccc1`, the cell number change amounted to 41.4%. Besides, the AC50 under setting [2] is 0.366 µM [rising, full curve]. Further, the AC50 under setting [1] is 7.31 µM [rising, partial curve].
For the compound `COc1ccc(CCNC(=O)c2ccc(N(C)S(=O)(=O)c3ccc(C)cc3)cc2)cc1`, under setting [2], the AC50 is 1.3 µM [rising, full curve, poor fit].
Take `CCOC(=O)CC(NC(=O)c1ccc(C)cc1)c1ccc(OC)cc1` (stereo unspecified): the cell number change was 21.6%. Further, the AC50 under setting [2] was 0.00517 µM [rising, full curve, poor fit].
Regarding `O=C(OCc1c(F)cccc1Cl)c1cnc(Cl)c(Cl)c1`, the cell number change is 53.8%. Moreover, under setting [2], the half-maximal activity concentration (AC50) is 14.6 µM [rising, partial curve, poor fit]. For the same compound, the AC50 under setting [1] was 6.51 µM [rising, single point].
Consider `O=S(=O)(N1CCCCC1)n1c(Cc2ccccc2)nc2ccccc21`, for which, under setting [1], the concentration at half-maximal activity (AC50) was 0.366 µM [rising, single point].
`Cc1cc(C)cc(NC(=O)CC2NCCNC2=O)c1` (stereo unspecified): the cell number change worked out at 10.3%. Further, the half-maximal activity concentration (AC50) under setting [1] was 0.651 µM [falling, single point].
For the compound `CC(C)Cn1c(SCC(=O)NCCCN2CCCC2=O)nc2ccccc21`, under setting [2], the AC50 is 0.366 µM [rising, single point].
Take `C=CCN=C(C)C1=C(O)CCC1=O`: the cell number change is -173%. Further, the AC50 under setting [2] is 29.1 µM [falling, single point].
Consider `C/C=C(/C)C(=O)Nc1cccc(C2=NOC3(C2)C[C@@H](C(N)=O)N(C(=O)CC(c2ccccc2)c2ccccc2)C3)c1` (stereo partly specified), for which the AC50 under setting [1] is 3.26 µM [rising, single point].
In the case of `CC(C)(C)C(=O)Nc1cc(NC(=O)C(C)(C)C)cc(C(=O)Nc2cc(C(=O)O)cc(C(=O)O)c2)c1`, the cell number change was -1.69%. Moreover, under setting [1], the AC50 was 29.1 µM [rising, single point].
For `O=C(NCCC1=CCCCC1)c1ccc(=O)oc1`, the cell number change was -0.34%. The concentration at half-maximal activity (AC50) under setting [1] is 0.00411 µM [falling, full curve, poor fit].
For `Cc1nc(C(=O)Nc2ccc(Cl)cc2Cl)nn1-c1cc(OC(C)C)c(Cl)cc1Cl`, the cell number change turned out to be 6.9%.
On to `CC(C)COCc1ccc(O)c2ncccc12`, for which the cell number change is -10.3%. The half-maximal activity concentration (AC50) under setting [1] is 0.116 µM [falling, full curve, poor fit].
Take `COc1cccc(NC(=O)CN(C)C(=O)c2ccc(-c3ccc(Cl)cc3)o2)c1`: the AC50 under setting [1] was 3.66 µM [rising, partial curve].
Regarding `O=C(CSc1ncn[nH]1)OCN1C(=O)c2ccccc2C1=O`, the cell number change came to 1.94%. Under setting [1], the half-maximal activity concentration (AC50) is 1.84 µM [falling, partial curve].
For `CCN(CC)S(=O)(=O)c1cc(NC(=O)C(C)N2CCN(Cc3ccc4c(c3)OCO4)CC2)ccc1C` (stereo unspecified), the cell number change was determined as 30.6%. Further, the half-maximal activity concentration (AC50) under setting [2] is 20.6 µM [rising, single point]. The concentration at half-maximal activity (AC50) under setting [1] is 18.4 µM [rising, partial curve].
Turning to `Cc1c(Br)c(C(F)(F)F)nn1CC(=O)N1CCCC1`, the cell number change was -30.7%. Besides, under setting [2], the AC50 is 5.17 µM [falling, full curve, poor fit]. Also, the half-maximal activity concentration (AC50) under setting [1] was 0.731 µM [falling, full curve, poor fit].
In the case of `Cn1c(NC(=O)c2cccs2)cc(=O)n(C)c1=O`, the cell number change was -16.5%. Besides, the AC50 under setting [2] was 0.651 µM [falling, full curve, poor fit].
In the case of `O=C(NNC(=O)C1CC(=O)N(Cc2ccccc2)C1)c1ccc(F)cc1` (stereo unspecified), the cell number change was -11%. Further, the AC50 under setting [2] is 0.00411 µM [falling, full curve, poor fit].
Regarding `CCC(C)Nc1nc(CN2CCOCC2)nc2sc3c(c12)CCC3` (stereo unspecified), the cell number change worked out at 92.9%.
As for `O=C(CCc1nc2ccccc2c(=O)[nH]1)Nc1cccc(S(=O)(=O)N2CCCCC2)c1`, the cell number change is -11.6%. Moreover, the AC50 under setting [1] is 1.64 µM [falling, single point].
As to `CCOc1ccc(OCC)c(NC(=O)C2CCN(S(=O)(=O)c3cccc4nonc34)CC2)c1`, the cell number change is -65.7%. Moreover, the AC50 under setting [2] is 18.4 µM [falling, single point]. Moreover, the AC50 under setting [1] was 14.6 µM [falling, partial curve].
As to `c1ccc(-c2csc(Nc3ccc4c(c3)OCCO4)n2)cc1`, the cell number change is -11.4%. Also, under setting [1], the half-maximal activity concentration (AC50) is 0.461 µM [rising, single point].
For the compound `COc1cc(OC)cc(C(=O)NNC(=S)NC(=O)c2cccnc2)c1`, the cell number change was -5.24%.
Consider `O=[N+]([O-])c1ccc(Cl)c(S(=O)(=O)Nc2ccc(-c3ccc(N4CCOCC4)nn3)cc2)c1`, for which the cell number change stood at 76.4%. For the same compound, under setting [2], the AC50 is 25.9 µM [rising, single point].
Regarding `Cn1c(=O)c2c(c3ccccc31)OC(C)(C)CC2`, the cell number change is 1.17%. Under setting [2], the concentration at half-maximal activity (AC50) was 0.731 µM [rising, single point]. The AC50 under setting [1] was 0.58 µM [rising, partial curve, poor fit].
In the case of `Cc1cc(=O)oc2cc(OCC(=O)Nc3c(Cl)cccc3C(F)(F)F)ccc12`, the cell number change is -9.83%.
Turning to `COC(=O)C1=C(C)Nc2nnnn2C1c1cc(OC)ccc1OC` (stereo unspecified), the cell number change turned out to be 3.49%. For the same compound, under setting [1], the AC50 is 14.6 µM [rising, single point].
Regarding `COc1ccc(S(=O)(=O)N[C@@H](C)C(=O)OCC(=O)Nc2cc3oc4ccccc4c3cc2OC)cc1`, the cell number change came to 20.4%. The AC50 under setting [1] was 2.59 µM [rising, single point].
With `COC(=O)Cc1c(O)ccn(CCc2c[nH]c3ccccc23)c1=O`, the cell number change is -41.1%. The concentration at half-maximal activity (AC50) under setting [2] was 7.31 µM [falling, single point]. Besides, the AC50 under setting [1] is 6.51 µM [falling, single point].
Turning to `Cc1cc(C)n2nc(C(=O)N/N=C/C=C/c3ccccc3)nc2n1`, the cell number change was -12.7%. Further, the AC50 under setting [1] is 16.4 µM [falling, single point].
`C=CCn1c(=O)c2c(nc3n2CCCN3Cc2ccccc2)n(C)c1=O`: the cell number change is -0.917%. Moreover, the AC50 under setting [1] is 0.58 µM [rising, single point].
Regarding `NS(=O)(=O)c1ccc(CCNC(=O)c2ccc(OCC3CCCO3)cc2)cc1` (stereo unspecified), the cell number change was found to be 24.8%. In addition, under setting [1], the AC50 was 0.116 µM [rising, full curve, poor fit].
With `COc1ccccc1NC(=O)C1CCCN(S(=O)(=O)c2ccc3[nH]c(=O)ccc3c2)C1` (stereo unspecified), the cell number change turned out to be 23.1%. In addition, under setting [1], the AC50 is 29.1 µM [rising, single point].
As for `COc1ccc(/C=C/C(=O)OC(C)CN2CCCCC2)cc1` (stereo unspecified), the cell number change came out at 24.9%. Besides, the AC50 under setting [1] is 20.6 µM [rising, single point].
Take `CC(C)(C)C(=O)Nc1cccc(-c2nnc(-c3cccc(NC(=O)C(C)(C)C)c3)o2)c1`: the cell number change turned out to be 23.5%. In addition, the AC50 under setting [1] was 4.61 µM [rising, full curve].
As to `Cc1ccnc(NC(=O)c2cccc(OC(F)F)c2)n1`, the cell number change is -14.3%.
Take `CCn1c(/C=C/c2ccccc2F)nc2ccccc2c1=O`: the cell number change was -9.89%. In addition, under setting [1], the AC50 was 29.1 µM [falling, single point].
For `Cc1ccc(C(C)C)c(OCC(=O)NNC(=O)Cn2[nH]c(=O)c3ccccc3c2=O)c1`, the cell number change turned out to be 16.9%. The AC50 under setting [1] is 0.326 µM [falling, single point].
For the compound `Cc1cccc(OCC(=O)N(Cc2nnc(-c3ccccc3Cl)o2)C2CC2)c1`, the cell number change was 22.2%. The half-maximal activity concentration (AC50) under setting [1] is 0.103 µM [rising, full curve, poor fit].
As to `Cc1ccc(NS(=O)(=O)c2cccc(C(=O)NCC(c3ccc(F)cc3)N3CCOCC3)c2)cc1` (stereo unspecified), the cell number change was 4.41%. The AC50 under setting [1] is 0.206 µM [falling, full curve, poor fit].
